{"source": "PubChem BioAssay AID493014", "about": "(National Center for Advancing Translational Sciences (NCATS), 2011)", "experiment": "qHTS Assay to Find Inhibitors of Chronic Active B-Cell Receptor Signaling", "details": "ABC-DLBCL IkBa-CBG/CBR reporter, luminescence ratio (green luciferase fused to IkBa over red control in TMD8 lymphoma cells), 4 h", "procedure,_shortened": "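Compounds up to 46 uM were incubated four hours with TMD8 cells whose green CBG68 luciferase is fused to IkappaBalpha; red CBR luminescence normalised the signal, and concentration-effect curves were fitted to fusion, red and ratio data.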", "key": {"[1]": {"details": "measured here: CBR red luminescence, cell number"}}, "note": "Some of the results follow. Shown are side measurements of this screen, not its main read-out; they come without a call. Most of these compounds were active or inconclusive in the main read-out, so they are no random draw. Potencies come from curve fits of mixed quality, noted in brackets.", "data": [{"molecule": "O=C1C2C3C=CC(C3)C2C(=O)N1/N=C/c1cn(Cc2ccccc2)c2ccccc12", "note": "(stereo not drawn)", "values": [{"measurement": "AC50", "setting": "[1]", "value": "2.51 µM [rising, full curve]"}]}, {"molecule": "COC(=O)c1ccccc1N=Nc1c(N)n[nH]c1N", "values": [{"measurement": "AC50", "setting": "[1]", "value": "35.5 µM [falling, single point]"}]}, {"molecule": "CC(C)CCNC(=O)/C=C/c1ccc(Br)cc1", "values": [{"measurement": "AC50", "setting": "[1]", "value": "29.1 µM [falling, single point]"}]}, {"molecule": "CCCCC(=O)Nc1ccc(C(=O)NNC(=O)c2ccco2)cc1", "values": [{"measurement": "AC50", "setting": "[1]", "value": "35.5 µM [falling, single point]"}]}, {"molecule": "Cc1ccc(CSc2nnc(-c3cccc(S(=O)(=O)N4CCOCC4)c3)n2CC(C)C)cc1", "values": [{"measurement": "AC50", "setting": "[1]", "value": "0.82 µM [falling, full curve, poor fit]"}]}, {"molecule": "COCCOC(=O)C1=C(C)OC(N)=C(C#N)C1c1ccc2c(c1)OCO2", "note": "(stereo not drawn)", "values": [{"measurement": "AC50", "setting": "[1]", "value": "16.4 µM [falling, single point]"}]}, {"molecule": "CCOC(=O)N1CCN(S(=O)(=O)c2ccc(C(=O)Nc3sc4c(c3C(N)=O)CC(C)(C)NC4(C)C)cc2)CC1", "values": [{"measurement": "AC50", "setting": "[1]", "value": "35.5 µM [falling, single point]"}]}, {"molecule": "CCSc1cc(N2CCOCC2)nc(-c2ccccc2)n1", "values": [{"measurement": "AC50", "setting": "[1]", "value": "2.59 µM [rising, partial curve, poor fit]"}]}, {"molecule": "CC(C)(C)c1ccc(Cn2c(=O)cnc3ccccc32)cc1", "values": [{"measurement": "AC50", "setting": "measured here: IkBa-CBG green luminescence", "value": "17.8 µM [falling, single point]"}]}, {"molecule": "Cn1nnnc1SCCNCc1ccncc1", "values": [{"measurement": "AC50", "setting": "[1]", "value": "3.66 µM [rising, single point]"}]}, {"molecule": "CC(=O)N1CCN(c2nc3ccc(Br)cc3s2)CC1", "values": [{"measurement": "AC50", "setting": "[1]", "value": "0.447 µM [rising, partial curve, poor fit]"}]}, {"molecule": "C=CCOC(=O)C1=C(C)NC(SCC(=O)N(CC)CC)=C(C#N)C1c1ccco1", "note": "(stereo not drawn)", "values": [{"measurement": "AC50", "setting": "[1]", "value": "29.1 µM [falling, single point]"}]}, {"molecule": "CCS(=O)(=O)N1Cc2ccccc2CC1C(=O)Nc1ccc(F)cc1", "note": "(stereo not drawn)", "values": [{"measurement": "AC50", "setting": "[1]", "value": "7.94 µM [falling, partial curve, poor fit]"}]}, {"molecule": "Cn1c(/C(C#N)=C(\\O)c2ccc([N+](=O)[O-])cc2)nc2ccccc21", "values": [{"measurement": "AC50", "setting": "[1]", "value": "0.112 µM [rising, full curve, poor fit]"}]}, {"molecule": "O=C(c1ccccc1)c1c(O)nc(-c2ccccc2)n(-c2ccccc2)c1=O", "values": [{"measurement": "AC50", "setting": "[1]", "value": "10.3 µM [falling, partial curve]"}]}, {"molecule": "c1ccc2nc(N3CCOCC3)cnc2c1", "values": [{"measurement": "AC50", "setting": "[1]", "value": "0.103 µM [rising, full curve, poor fit]"}]}, {"molecule": "COc1cc(NC(=O)C(=O)NCCN(C)C)c(OC)cc1Cl", "values": [{"measurement": "AC50", "setting": "[1]", "value": "15.8 µM [rising, single point]"}]}, {"molecule": "CC(C)OCc1ccc(C(=O)N2CCN(CC(=O)N3CCCC3)CC2)cc1", "values": [{"measurement": "AC50", "setting": "[1]", "value": "0.0731 µM [rising, full curve, poor fit]"}]}]}
